According to publication PMC6072111:
Results are given in words; binding and its absence hold for the method and conditions named. In cells and extracts the contact can be indirect.

Target: MUT-16 (constructs of the self co-immunoprecipitation not stated) (C. elegans) (UniProt O62011)
Assay: co-IP; MUT-16 with itself; told in the discussion only, no data shown, constructs not stated

binding: no binding
B1: MUT-16 (constructs of the self co-immunoprecipitation not stated) (protein, UniProt O62011 1-1054)
chain: MSESDDDYPELDISDQYIDPLGIVVGPPPASYTETDREETPMQNRTEDDTNSYGNSSGEHDYDSYLDSGDDDFDVDAYYANDNMDEPPPETIPDNLIQNVIGRNDNADYDFSDASNPEIMKRDLQLFLSSSLLSNPLKFRSGYSSDELDDCLKSCMGYSLQVTAVLLLPPEIISQLPNDSKTEHAHALVRGGWLQSKEGAFFPVISDSERETVVSLMNGSEEQHKRQERKKKEADTFESEEKEIRTLLTFNMIAELLMAVRNEYSIRSVKYQILSTAYTNMVTGAAHANIFRKYKDILQLDPEKLWNNDWFKEYTNRGTLKKFLTTARFSEIVVSQANGKTVELYFRADDEGNRPVVLFTDEHIADVRNKWKTGNQRNQNYGSQGNYRAGGQRSDDRRGPQQRRNVIVPDPNYQPSTFAGGISNNADDDGSLQPTTSSHFNRNTDRSTSRPPRAPTSPVNRVMETDPLMGQGTSSGAPQRSAIPNPFGGAPALSRSTITNGNRGPSYGDRGERVQDVGDTTSDSEITSEGSYSDEDPEQKEIKRQRRKDKLKKKQERELRSREKHTKSKQQPPSKIETRFNTYKKKSESSATDTSNTPPVDTVNVALPTPVVESSSTTAAPSIPVSTRPEVVVPPENPAPLREVGNFYSKSNHDEDRRNVQLPFTPADTHKPIKVAPKEPVRNPLLKERPSANGFINRRLPSHPAPPPVNQSQPANQPMQTAVYQNSHPGAPYIPQQPTYQPQLPVQQPQPHQYAPQPIHHQQPIHQPMHGQQYPPVNQQQPIYQQPAPQYPPYNSIQNNPQHGPSPFNYSQVPQPAYNHVGQQPSHMSNQPHINQNGYQNSYNPNQGPTSSDPNYGCNPQFNHYGSRSVYHEDHSSQRRRSPDQFPPNPPEYDPHGNFKLADYERDRMTVGYSQNPHQFDHHGSHMPHQSQPQGYDNFNGNSAPYFNKNGGQSNHQPEAQRSFSVLSSNRQPSNRELIFQDGIEKELRDIILRYRSMNLTVLTVQELRTEVSRRPAIPRYIDIVQYIRDSSSVAIVERGDIEPYVVLKDDIRN
